# Screening data, single-dose tests

Data taken from ChEMBL document CHEMBL3988442, “University of Dundee, Small-Polar-MMV Screening Library” (2021).

Results are given as percent effect.
The controls that fix the scale are not given in the record; negative values are as filed.
The compounds are a random part of those screened.
Two or more numbers in one place are separate tests of the same structure; such repeats can differ widely.

A: 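Growth of Mycobacterium tuberculosis over 4 days (cholesterol / DPPC medium with tyloxapol); the read-out is not stated. Concentration: 50 µM. Direction is inferred from retests: higher values go with more growth inhibition. Of about 69,000 compounds tested this way, about 370 (0.54%) reached 50% or more in at least one test.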
B: 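Phenotypic screen: M. tuberculosis growth, glucose 7H9 medium, 3 days; the read-out is not stated. Tested at 50 µM. Direction is inferred from retests: higher values go with more growth inhibition. About 69,000 compounds were tested under these conditions; 1.1% (about 760) showed 50% or more at least once.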

SMILES | A | B
CCCC(=O)N1CCCC(C(=O)c2cnn(-c3ccc(F)cc3)c2N)C1 (stereo unspecified) | -3.525 and -0.3994 | 2.468
CCN(CC1COc2ccccc2O1)C(=O)CCn1cncn1 (stereo unspecified) | 7.422 | 11.87
CS(=O)(=O)CCC(=O)N1CCC2(CCCN(C3CCOCC3)C2=O)C1 (stereo unspecified) | -1.884 | -5.77
CCC(=O)NCCc1cc2nc(-c3ccncc3)ccn2n1 | 1.309 and -4.078 | -2.633
COCCOCC(=O)N1CCC(O)(c2ccc3nc(C)ccc3c2)CC1 | -13.39 | 11.99
CCOCc1nc2c(c(NC(CC)c3cccnc3)n1)CCNCC2 (stereo unspecified) | -11.7 | 19.74
Cc1ccc(CNCc2nccn2C)c(OCC2CC2)c1 | 3.324 | 21.37
COCCNc1cc(-c2ccccc2CCN)c2cc[nH]c2n1 | -6.185 | 24.08
COc1ccc(C2CCCN2S(=O)(=O)N(C)C)cc1 (stereo unspecified) | -9.562 | -3.523
[H][C@]12CCN(C(=O)CC(C)C)CC[C@@]1([H])S(=O)(=O)N(Cc1cccnc1)C2 | -15.98 | -18.17
[H][C@@]12CCN(C[C@@H]1CC)[C@@H](CNCc1ccc3c(c1)OCO3)C2 | 1.332 | -1.455 and 4
Cc1nc2cc(=O)[nH]n2c(C)c1CC(=O)NC(C)C | 15.18 | 4.774
Cn1cc(CN2CCCC23CCN(C(=O)c2cccs2)CC3)cn1.O=C(O)C(F)(F)F | -2.258 | 3.187
O=C(C1CC1)N1CC[C@H](c2nc3ccccc3o2)C1 | -15.21 | -44.24 and 5.644
CC(=O)c1ccc(N2CCC3(CC2)CC(=O)N(C)C3)nc1 | -28.53 | -45.28 and -6.204
O=C(Cn1cnc2sccc2c1=O)NCCCc1nnc2ccccn12 | -5.171 | 7.778
Cc1nn(C)c(C)c1-c1ccnc(N(C)Cc2noc(C(C)C)n2)n1 | -8.897 | -19.3
CCNC(=O)[C@@H]1C[C@@H](NC(=O)Cc2cc(C)no2)CN1Cc1ccsc1 | -18.5 | -9.543
Cl.Cn1ncc2c1CCCC2NCc1cccc(C(F)(F)F)c1 (stereo unspecified) | -8.008 | 4.34
CC1(C(=O)N2CCN(c3cnccn3)CC2)CNCCO1 (stereo unspecified) | 1.552 and 4.951 | -11.39
O=C(CCN1CCCC(CO)(CC2CC2)C1)NC1CCCCC1 (stereo unspecified) | 8.445 | -7.645
O=C(C1CC1)N1CCC2(COCc3cnc(NCc4ccco4)nc32)C1 (stereo unspecified) | 21.53 | 19.68
C[C@@H]1CN(CCC(=O)N(C)Cc2ccccc2)CC[C@@]1(O)C1CCC1 | -20.01 | -7.996 and -43.2
CCc1nnc2n1CCN(CC(O)CN1CCC(C)CC1)C2 (stereo unspecified) | 1.758 | 10.16 and 3.691
Cc1nc(CN2CCCC(c3nccs3)C2)cs1 (stereo unspecified) | 12.25 and 4.946 | -6.148
CC1(C)[C@H](Cc2cc(CN3CCCCC3)on2)C[C@@H]1NS(C)(=O)=O | -0.7001 | -0.2347 and 22.98
CC(C)CCN1CCc2[nH]nc(C(=O)N3CC=CC3)c2C1.O=C(O)C(F)(F)F.O=C(O)C(F)(F)F | 5.957 | -21.76
O=C(CNC1CCc2ncnn2C1)NCCc1cccs1 (stereo unspecified) | -24.37 | -15.02 and -2.254
Cc1cc(C)c(OCC(=O)NS(=O)(=O)c2cccnc2)c(C)c1 | 10.64 | 13.43
Cc1noc(C)c1CC(=O)N1CCc2sccc2C1 | -13.39 | -0.9014
COc1ccc(C2CNCCN2C(=O)c2cccc3cccnc23)cc1 (stereo unspecified) | -21.91 | 29.24
Cc1nnc2n1CCN(Cc1csc(COc3ccccc3)n1)C2 | 9.084 | -3.218 and -2.958
Cc1ccc(CNCc2cc(Br)c3c(c2)OCO3)cc1 | 23.61 | 22.03
COCCNC(=O)C1CN(Cc2cccnc2)Cc2ccnn2C1.O=C(O)C(F)(F)F.O=C(O)C(F)(F)F.O=C(O)C(F)(F)F (stereo unspecified) | -20.57 | -12.47
O=C(COCc1ccccc1)N1CCCC1c1noc(C2CC2)n1 (stereo unspecified) | -20.58 | -9.305
CCN1c2ccc(-c3cncn3CCCn3ccnc3C)cc2CC1C.Cl (stereo unspecified) | 35.25 and 59.65 | 57.44
CC(C)N(Cc1ccc(C(=O)O)o1)C(C)C.Cl | 2.143 | 10.34 and -3.749
O=C(O)C(F)(F)F.[H][C@@]12COC[C@]1(COc1cccnc1)CN(C(=O)COC1CCCC1)C2 | 13.39 | 5.071
CNc1nccc(-c2cnc3sc(C)c(C)n3c2=O)n1 | 2.264 | 16.15
CC(C)n1cc(S(=O)(=O)NCCc2nnc3ccccn23)cn1 | -11.83 | -5.713 and -17.36
CCCc1nc(NCCc2ccccc2)c2c(n1)c(C)nn2CC | 3.066 | 47.74 and 24.83
CC(C)(CNc1cn[nH]c(=O)c1Cl)c1ccc2c(c1)OCO2 | -11.95 | -30.24 and 8.126
CS(=O)(=O)NC(=O)c1cc(Cl)c2c(c1)OCCCO2 | -3.965 | 12.13 and 2.924
Cc1ccccc1C(=O)Nc1ccc(OC2CCN(C)CC2)cc1 | 5.025 and 8.047 | 5.323
O=C(O)C(F)(F)F.[H][C@@]12CCN(c3ncccn3)[C@@]1([H])CCN2S(=O)(=O)c1ccc(F)cc1 | -4.177 | -11.52 and 2.931
Cc1ncsc1CNCC(C)c1nc2ccccc2o1 (stereo unspecified) | 12.39 | 12.13
O=C1CN(C(=O)C2CCCCC2)CC(O)CN1Cc1ccco1 (stereo unspecified) | -12.42 | -7.854
O=C(CCNC(=O)c1ccoc1)Nc1ccc(F)cc1F | 11.59 | 10.85
O=C(O)C(F)(F)F.[H][C@@]12CN(Cc3cccc(C)c3)C[C@]1([H])OCCN2CC(=O)N(C)C | -15.01 | -12.95
CNc1nc(CNC(=O)Nc2ccc(OC)cc2C)cs1 | -143.7 and -3.678 | 28.51
O=C(CCCN1CCCCC1)N1CCN(C(=O)c2ccc[nH]2)CC1 | -2.34 and -5.497 | -19.89
Clc1cccnc1N1CCC(C2CCN(Cc3cccnc3)CC2)C1 (stereo unspecified) | -19.89 | 8.898
O=C(CC1CN(Cc2ccccc2)CCO1)NC1CCCC1 (stereo unspecified) | -13.3 and 1.885 | 11.95
CCC(C)(NCC(=O)NC(C)C)c1nc(C)cs1 (stereo unspecified) | 3.787 | 4.191 and 2.53
CCS(=O)(=O)c1ccccc1N1CCC(NC(=O)NC2CCCC2)CC1 | -6.761 | -24.55
COCC(NC(=O)c1ccoc1)c1ccc(C)o1 (stereo unspecified) | -0.2062 and -0.02962 | 2.016 and 17.31
[H][C@@]12C[C@H](C)O[C@]1([H])CCN(C(=O)c1ccncn1)C2 | 0.9064 and -3.429 | -39.82
Cc1nnc2n1CCN(c1nn3cc(C(C)(C)C)nc3s1)C2 | 11.71 | 10.97
[H][C@]12CC[C@@]3(N=C(c4ccccc4)NC3=O)[C@@]1([H])CN(Cc1cccnc1)C2 | -25.15 | -4.594 and -13.67
COc1cc(OC)c(-c2nc3c([nH]2)c(C2CC2)nn3C)cc1OC | -3.942 | 21.03
CCc1[nH]ncc1C(=O)N1CCCN(Cc2cnn(C)c2)CC1 | -24.07 | -34.07
CC(=O)N1Cc2ccccc2OC2(CCN(C(=O)C3CC3)CC2)C1 | -9.557 | -34.9
O=C(Cc1ccccc1)N1CCn2cc(Cn3cncn3)nc2C1 | -0.618 | -25.04 and 1.214
NC1(C(=O)NCCC2CN(Cc3ccco3)CCO2)CCCC1 (stereo unspecified) | -9.319 | 11.37
COc1ccnc(CN2CCC(O)(c3ccc(C)cn3)CC2)c1OC | -5.976 and 1.566 | 5.49 and -19.17
CN(C)C(=O)C1(CCCc2ccccn2)CCN1Cc1nccn1C (stereo unspecified) | 11.34 | -16.44
CSc1cc2c(cc1NC(=O)NCC1CCOC1)OCCO2 (stereo unspecified) | -23.51 | -26.02
CCn1nnc2c1C(COCC(=O)N(C)C)CN(Cc1ccoc1)C2 (stereo unspecified) | 70.97 | 5.5
[H][C@@]12CS(=O)(=O)C[C@]1([H])N(Cc1ccc3nsnc3c1)CCN2CCOC | -12.96 | -0.8757

For reference, 7 entries once more:

{"smiles": "CC(=O)N1Cc2ccccc2OC2(CCN(C(=O)C3CC3)CC2)C1", "A": -9.557, "B": -34.9}
{"smiles": "Cc1ccccc1C(=O)Nc1ccc(OC2CCN(C)CC2)cc1", "A": "5.025 and 8.047", "B": 5.323}
{"smiles": "CC1(C(=O)N2CCN(c3cnccn3)CC2)CNCCO1", "stereo": "stereo unspecified", "A": "1.552 and 4.951", "B": -11.39}
{"smiles": "CS(=O)(=O)CCC(=O)N1CCC2(CCCN(C3CCOCC3)C2=O)C1", "stereo": "stereo unspecified", "A": -1.884, "B": -5.77}
{"smiles": "COc1ccc(C2CCCN2S(=O)(=O)N(C)C)cc1", "stereo": "stereo unspecified", "A": -9.562, "B": -3.523}
{"smiles": "CS(=O)(=O)NC(=O)c1cc(Cl)c2c(c1)OCCCO2", "A": -3.965, "B": "12.13 and 2.924"}
{"smiles": "C[C@@H]1CN(CCC(=O)N(C)Cc2ccccc2)CC[C@@]1(O)C1CCC1", "A": -20.01, "B": "-7.996 and -43.2"}